The other results are listed elsewhere or left out. Residues, ends and D or L forms follow the SMILES beside them. *: point of attachment. Cbz = O=C(OCc1ccccc1)*
How the values were obtained:
Assay in all cases: log2 fold change, soluble protein after heating vs DMSO (PISA); higher = thermal stabilisation; K562 cells, 10 uM, 30 min; active = over 0.2 and 3.5 SD of the protein, either way, in both replicates (recomputed)
erlotinib = compound: C#Cc1cccc(Nc2ncnc3cc(OCCOC)c(OCCOC)cc23)c1 [erlotinib]
Method in brief: (§1)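 Soluble protein was quantified by TMTpro 16plex LC-MS/MS after channel sums were equalised. It was obtained as the supernatant after 21,000xg for 90 min from pooled aliquots of K562 cells (2×10^6 cells/mL, 10 μM compound, 30 min) heated for 3 min across 48°C-58°C and extracted in PBS with 0.5% NP-40 at 4°C. Thermal stability values are relative to control samples and come from duplicates. They are given as log2 fold changes.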

By UniProt entry, the sequences of proteins in these tests, tags left out. Where a name states a change or a piece, a line headed by the entry shows the natural chain unless it says otherwise.
UniProt Q03113, whole entry, looked up: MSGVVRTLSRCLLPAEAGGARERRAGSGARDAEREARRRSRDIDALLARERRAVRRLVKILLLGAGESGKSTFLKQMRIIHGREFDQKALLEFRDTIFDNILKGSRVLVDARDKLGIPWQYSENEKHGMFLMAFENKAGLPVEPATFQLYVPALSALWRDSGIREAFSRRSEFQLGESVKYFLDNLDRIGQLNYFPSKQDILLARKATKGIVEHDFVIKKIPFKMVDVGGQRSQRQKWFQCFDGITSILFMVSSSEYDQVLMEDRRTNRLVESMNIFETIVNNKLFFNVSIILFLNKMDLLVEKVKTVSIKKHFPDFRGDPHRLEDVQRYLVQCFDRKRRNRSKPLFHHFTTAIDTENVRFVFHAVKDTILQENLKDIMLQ
UniProt Q14161: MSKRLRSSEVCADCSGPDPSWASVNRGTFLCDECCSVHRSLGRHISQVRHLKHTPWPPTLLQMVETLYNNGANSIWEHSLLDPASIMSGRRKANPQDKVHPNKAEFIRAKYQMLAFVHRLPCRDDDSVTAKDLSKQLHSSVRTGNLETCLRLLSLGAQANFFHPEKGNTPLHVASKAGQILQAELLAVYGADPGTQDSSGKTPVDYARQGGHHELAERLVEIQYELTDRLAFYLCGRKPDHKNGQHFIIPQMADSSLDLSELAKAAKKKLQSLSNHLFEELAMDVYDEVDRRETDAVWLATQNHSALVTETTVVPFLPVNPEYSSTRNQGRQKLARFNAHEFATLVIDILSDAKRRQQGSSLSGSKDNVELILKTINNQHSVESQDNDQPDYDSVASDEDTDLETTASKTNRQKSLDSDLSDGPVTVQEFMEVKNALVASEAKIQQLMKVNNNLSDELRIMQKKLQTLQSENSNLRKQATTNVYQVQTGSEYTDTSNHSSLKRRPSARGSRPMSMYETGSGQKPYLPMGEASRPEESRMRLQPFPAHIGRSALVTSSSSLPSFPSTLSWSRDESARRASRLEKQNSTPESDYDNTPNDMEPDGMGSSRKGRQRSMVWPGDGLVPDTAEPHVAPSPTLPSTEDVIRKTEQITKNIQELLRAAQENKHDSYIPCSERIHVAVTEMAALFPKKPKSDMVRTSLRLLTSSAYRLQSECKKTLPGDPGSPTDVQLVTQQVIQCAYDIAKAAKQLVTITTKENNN
UniProt Q9UKD1: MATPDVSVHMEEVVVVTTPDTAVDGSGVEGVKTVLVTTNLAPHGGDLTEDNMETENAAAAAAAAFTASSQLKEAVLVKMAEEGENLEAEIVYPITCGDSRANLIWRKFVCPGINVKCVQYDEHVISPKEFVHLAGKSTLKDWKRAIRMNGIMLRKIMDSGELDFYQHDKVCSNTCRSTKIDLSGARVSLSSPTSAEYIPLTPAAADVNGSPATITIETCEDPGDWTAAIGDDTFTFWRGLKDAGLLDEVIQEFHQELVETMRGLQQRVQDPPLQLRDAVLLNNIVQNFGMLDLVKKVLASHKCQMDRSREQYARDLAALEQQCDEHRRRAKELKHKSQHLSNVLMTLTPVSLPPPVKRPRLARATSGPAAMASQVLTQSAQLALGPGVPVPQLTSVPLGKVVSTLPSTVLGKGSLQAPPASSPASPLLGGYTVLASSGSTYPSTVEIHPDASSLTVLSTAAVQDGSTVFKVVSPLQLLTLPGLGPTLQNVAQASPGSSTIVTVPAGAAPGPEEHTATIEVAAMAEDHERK
UniProt P21695: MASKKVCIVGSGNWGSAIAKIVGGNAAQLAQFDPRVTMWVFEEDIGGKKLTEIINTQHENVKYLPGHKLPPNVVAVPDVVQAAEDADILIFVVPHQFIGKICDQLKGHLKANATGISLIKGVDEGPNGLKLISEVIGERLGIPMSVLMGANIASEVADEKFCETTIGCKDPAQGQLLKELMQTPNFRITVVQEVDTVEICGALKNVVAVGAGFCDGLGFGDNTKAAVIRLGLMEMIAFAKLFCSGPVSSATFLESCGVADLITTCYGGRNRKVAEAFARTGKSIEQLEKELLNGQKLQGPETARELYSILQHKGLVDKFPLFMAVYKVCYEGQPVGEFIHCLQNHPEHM
UniProt Q9HCL2: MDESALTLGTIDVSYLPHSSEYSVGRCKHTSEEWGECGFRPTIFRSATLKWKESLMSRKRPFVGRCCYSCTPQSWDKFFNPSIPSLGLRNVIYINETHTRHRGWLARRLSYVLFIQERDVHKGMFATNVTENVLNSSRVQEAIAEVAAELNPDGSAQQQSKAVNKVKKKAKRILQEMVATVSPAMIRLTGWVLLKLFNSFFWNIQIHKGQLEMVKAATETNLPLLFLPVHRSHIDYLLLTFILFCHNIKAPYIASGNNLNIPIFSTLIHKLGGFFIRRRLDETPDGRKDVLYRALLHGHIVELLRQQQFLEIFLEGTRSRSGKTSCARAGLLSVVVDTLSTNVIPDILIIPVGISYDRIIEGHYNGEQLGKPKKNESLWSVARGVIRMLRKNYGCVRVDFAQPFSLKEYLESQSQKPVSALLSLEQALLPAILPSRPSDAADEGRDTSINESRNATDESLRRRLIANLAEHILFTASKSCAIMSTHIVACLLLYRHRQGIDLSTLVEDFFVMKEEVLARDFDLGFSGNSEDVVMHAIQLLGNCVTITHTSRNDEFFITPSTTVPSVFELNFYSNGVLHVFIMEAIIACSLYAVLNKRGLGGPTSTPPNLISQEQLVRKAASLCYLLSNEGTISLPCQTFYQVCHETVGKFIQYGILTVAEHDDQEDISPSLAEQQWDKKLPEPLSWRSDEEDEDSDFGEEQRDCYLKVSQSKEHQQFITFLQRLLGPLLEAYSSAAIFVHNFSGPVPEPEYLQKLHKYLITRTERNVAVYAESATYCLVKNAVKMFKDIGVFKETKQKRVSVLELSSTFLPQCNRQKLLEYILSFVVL
UniProt P36969, whole entry, looked up: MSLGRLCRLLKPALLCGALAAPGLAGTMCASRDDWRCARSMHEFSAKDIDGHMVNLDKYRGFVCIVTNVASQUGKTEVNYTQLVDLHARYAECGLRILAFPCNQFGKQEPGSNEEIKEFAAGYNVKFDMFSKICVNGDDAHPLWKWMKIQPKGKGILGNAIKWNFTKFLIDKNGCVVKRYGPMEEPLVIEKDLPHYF
UniProt P36915, whole entry, looked up: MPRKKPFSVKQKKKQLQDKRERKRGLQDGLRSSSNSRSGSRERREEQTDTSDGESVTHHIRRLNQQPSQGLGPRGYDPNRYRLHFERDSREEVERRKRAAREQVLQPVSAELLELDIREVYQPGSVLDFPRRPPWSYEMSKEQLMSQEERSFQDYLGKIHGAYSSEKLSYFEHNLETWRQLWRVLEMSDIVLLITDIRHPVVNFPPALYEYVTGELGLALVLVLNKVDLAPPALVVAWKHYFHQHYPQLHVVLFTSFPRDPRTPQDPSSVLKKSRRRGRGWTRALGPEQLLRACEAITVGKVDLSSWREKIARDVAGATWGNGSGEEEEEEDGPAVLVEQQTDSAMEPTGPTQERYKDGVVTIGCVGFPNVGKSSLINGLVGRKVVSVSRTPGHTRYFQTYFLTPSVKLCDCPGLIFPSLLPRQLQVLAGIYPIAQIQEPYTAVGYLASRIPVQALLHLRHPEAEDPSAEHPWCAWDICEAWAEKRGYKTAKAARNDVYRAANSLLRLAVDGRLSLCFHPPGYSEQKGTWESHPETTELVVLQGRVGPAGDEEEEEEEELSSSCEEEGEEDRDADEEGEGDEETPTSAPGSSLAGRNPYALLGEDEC
UniProt P49448: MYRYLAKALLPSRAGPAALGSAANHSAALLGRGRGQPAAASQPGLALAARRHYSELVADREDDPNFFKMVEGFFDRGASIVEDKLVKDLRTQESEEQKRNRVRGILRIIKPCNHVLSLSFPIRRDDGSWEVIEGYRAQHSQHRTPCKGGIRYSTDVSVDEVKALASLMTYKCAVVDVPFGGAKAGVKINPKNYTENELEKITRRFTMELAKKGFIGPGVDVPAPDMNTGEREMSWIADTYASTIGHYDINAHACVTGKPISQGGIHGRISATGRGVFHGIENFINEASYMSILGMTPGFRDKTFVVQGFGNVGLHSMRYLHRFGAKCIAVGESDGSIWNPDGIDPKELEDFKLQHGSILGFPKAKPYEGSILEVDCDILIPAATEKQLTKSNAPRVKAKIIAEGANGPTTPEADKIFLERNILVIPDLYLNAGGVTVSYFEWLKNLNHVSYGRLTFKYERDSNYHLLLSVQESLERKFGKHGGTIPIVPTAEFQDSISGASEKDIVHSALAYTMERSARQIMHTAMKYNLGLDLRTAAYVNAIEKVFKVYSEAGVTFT
UniProt Q14749: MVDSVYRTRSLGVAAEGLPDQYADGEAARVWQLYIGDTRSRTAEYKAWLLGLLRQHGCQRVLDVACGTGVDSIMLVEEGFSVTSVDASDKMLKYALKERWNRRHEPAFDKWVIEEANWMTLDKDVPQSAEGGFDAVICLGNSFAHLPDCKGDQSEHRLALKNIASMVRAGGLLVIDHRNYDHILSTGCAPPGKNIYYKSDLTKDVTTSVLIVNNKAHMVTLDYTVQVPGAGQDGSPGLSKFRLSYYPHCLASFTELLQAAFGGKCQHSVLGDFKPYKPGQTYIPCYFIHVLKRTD
UniProt Q4ZG55: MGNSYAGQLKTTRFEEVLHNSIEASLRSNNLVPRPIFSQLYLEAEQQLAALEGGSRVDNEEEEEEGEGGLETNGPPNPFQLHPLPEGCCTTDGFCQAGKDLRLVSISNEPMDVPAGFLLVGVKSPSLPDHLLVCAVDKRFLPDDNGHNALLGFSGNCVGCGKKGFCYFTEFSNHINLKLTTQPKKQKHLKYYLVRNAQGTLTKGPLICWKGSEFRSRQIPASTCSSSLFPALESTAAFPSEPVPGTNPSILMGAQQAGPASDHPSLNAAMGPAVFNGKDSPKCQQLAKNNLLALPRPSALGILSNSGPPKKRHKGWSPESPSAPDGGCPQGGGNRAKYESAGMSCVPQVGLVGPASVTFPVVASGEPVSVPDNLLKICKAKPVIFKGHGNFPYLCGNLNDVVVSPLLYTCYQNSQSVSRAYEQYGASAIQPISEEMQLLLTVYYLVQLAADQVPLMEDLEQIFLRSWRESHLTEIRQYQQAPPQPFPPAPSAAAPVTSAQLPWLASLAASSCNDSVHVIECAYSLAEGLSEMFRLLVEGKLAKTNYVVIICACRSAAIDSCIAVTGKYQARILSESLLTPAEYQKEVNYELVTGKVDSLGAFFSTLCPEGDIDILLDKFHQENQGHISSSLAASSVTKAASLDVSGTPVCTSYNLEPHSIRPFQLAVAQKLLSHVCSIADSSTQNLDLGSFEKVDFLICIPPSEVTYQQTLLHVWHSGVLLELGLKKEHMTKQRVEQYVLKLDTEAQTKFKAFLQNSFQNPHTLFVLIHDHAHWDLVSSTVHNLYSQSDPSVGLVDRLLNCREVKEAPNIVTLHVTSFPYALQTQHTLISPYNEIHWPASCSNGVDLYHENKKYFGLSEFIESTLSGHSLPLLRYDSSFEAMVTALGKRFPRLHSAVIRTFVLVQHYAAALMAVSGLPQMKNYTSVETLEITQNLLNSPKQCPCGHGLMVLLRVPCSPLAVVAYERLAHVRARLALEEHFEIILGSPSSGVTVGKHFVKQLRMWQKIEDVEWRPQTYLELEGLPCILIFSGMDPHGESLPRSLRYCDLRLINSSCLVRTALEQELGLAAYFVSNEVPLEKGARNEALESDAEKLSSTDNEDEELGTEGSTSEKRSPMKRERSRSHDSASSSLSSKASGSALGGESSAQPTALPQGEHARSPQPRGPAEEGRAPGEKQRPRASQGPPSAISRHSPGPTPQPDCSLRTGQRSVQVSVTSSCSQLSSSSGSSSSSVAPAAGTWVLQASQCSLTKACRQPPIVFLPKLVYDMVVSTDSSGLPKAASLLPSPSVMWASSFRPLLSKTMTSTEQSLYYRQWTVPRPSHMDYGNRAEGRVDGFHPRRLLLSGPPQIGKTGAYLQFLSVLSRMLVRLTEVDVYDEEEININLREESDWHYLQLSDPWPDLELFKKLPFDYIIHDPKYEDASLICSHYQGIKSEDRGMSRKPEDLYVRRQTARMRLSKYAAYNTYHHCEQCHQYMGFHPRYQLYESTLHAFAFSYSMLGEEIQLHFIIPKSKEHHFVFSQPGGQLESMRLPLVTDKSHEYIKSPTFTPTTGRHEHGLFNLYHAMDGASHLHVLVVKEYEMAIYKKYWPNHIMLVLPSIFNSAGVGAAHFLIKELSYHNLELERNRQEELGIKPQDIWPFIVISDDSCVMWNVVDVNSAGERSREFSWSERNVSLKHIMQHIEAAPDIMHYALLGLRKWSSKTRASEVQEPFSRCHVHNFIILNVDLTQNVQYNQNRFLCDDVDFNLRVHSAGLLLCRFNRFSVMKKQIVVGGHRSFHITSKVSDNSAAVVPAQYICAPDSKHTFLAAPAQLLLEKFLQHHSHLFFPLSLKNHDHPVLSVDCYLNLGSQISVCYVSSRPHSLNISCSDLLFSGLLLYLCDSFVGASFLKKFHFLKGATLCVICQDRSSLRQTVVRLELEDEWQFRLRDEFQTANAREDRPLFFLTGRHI

[1] = compound: C/C(=N\NC(=O)C1=CC(=CC=C1)S(=O)(=O)N2CCOCC2)/C3=C(C=CC(=C3)Cl)O
Method in brief: as §1

[2] = compound: C1=CC(=C(C=C1Cl)C2=NC3=NC=CN=C3C(=N2)NC4=CC=NC=C4)F
Method in brief: as §1

[3] = compound: C1=CC(=CC=C1C2=NC3=C(N2)C=C(C=C3)C(=O)N)OC4=CC=C(C=C4)Cl
Method in brief: as §1

[4] = compound: C1=CC2=C(C=CC(=C2)/C=C\3/C(=O)NC(=NCC4=CC=CS4)S3)N=C1
Method in brief: as §1

[5] = compound: C1=CC2=NC=CN=C2C=C1/C=C/3\C(=O)NC(=O)S3
Method in brief: as §1

[6] = compound: C1=CC=C2C(=C1)C3=NNC4=CC=CC(=C43)C2=O
Method in brief: as §1

[7] = compound: C1CCN(C1)C(=O)NC2=CC=CC(=C2)NC3=NC=C(C(=N3)NCCC4=CN=CN4)Br
Method in brief: as §1

[8] = compound: C1CN(CCC1(CC2=CC=C(C=C2)Cl)N)C3=NC=NC4=C3C=CN4
Method in brief: as §1

IRAK-1-4 Inhibitor I = compound: C1COCCN1CCN2C3=CC=CC=C3N=C2NC(=O)C4=CC(=CC=C4)[N+](=O)[O-] [IRAK-1-4 Inhibitor I]
Method in brief: as §1

ibrutinib = compound: C=CC(=O)N1CCC[C@@H](n2nc(-c3ccc(Oc4ccccc4)cc3)c3c(N)ncnc32)C1 [ibrutinib]
Method in brief: as §1

[9] = compound: CC(=O)c1cnc2ccc(-c3cc(Cl)c(O)c(Cl)c3)nc2c1N[C@H]1CC[C@H](CN(C)C)CC1
Method in brief: as §1

[10] = compound: CC(C)(O)CC(=O)NCCn1ccc2ncnc(Nc3ccc(Oc4cccc(C(F)(F)F)c4)c(Cl)c3)c21
Method in brief: as §1

[11] = compound: CC(C)C1=C2N=C(C=C(N2N=C1)NCC3=CC=CC=C3)NCCCCCCN
Method in brief: as §1

pinometostat = compound: CC(C)N(C[C@H]1O[C@@H](n2cnc3c(N)ncnc32)[C@H](O)[C@@H]1O)[C@H]1C[C@@H](CCc2nc3cc(C(C)(C)C)ccc3[nH]2)C1 [pinometostat]
Method in brief: as §1

[12] = compound: CC1=C(C(CC(=O)N1)C2=CC=C(C=C2)C(F)(F)F)C(=O)NC3=C(C=C4C(=C3)C=NN4)F
Method in brief: as §1

[13] = compound: CC1=C(C2=C(C=C1)C(=O)C3=CC=CC=C3N2CCCN)C
Method in brief: as §1

[14] = compound: C1=CC=C(C=C1)C2=NC(=C(N2)C3=CC=NC=C3)C4=CC(=C(C=C4)Cl)O
Method in brief: as §1

ralimetinib = compound: CC(C)(C)Cn1c(N)nc2ccc(-c3[nH]c(C(C)(C)C)nc3-c3ccc(F)cc3)nc21 [ralimetinib]
Method in brief: as §1

[15] = compound: CC(C)C[C@@H](C=O)NC(=O)[C@H](CC(C)C)NC(=O)[C@H](CC(C)C)NC(=O)OCc1ccccc1
Method in brief: as §1

| Target | log2 fold change (erlotinib) | log2 fold change [1] | log2 fold change [2] | log2 fold change [3] | log2 fold change [4] | log2 fold change [5] | log2 fold change [6] | log2 fold change [7] | log2 fold change [8] | log2 fold change (IRAK-1-4 Inhibitor I) | log2 fold change (ibrutinib) | log2 fold change [9] | log2 fold change [10] | log2 fold change [11] | log2 fold change (pinometostat) | log2 fold change [12] | log2 fold change [13] | log2 fold change [14] | log2 fold change (ralimetinib) | log2 fold change [15] |
| --- | --- | --- | --- | --- | --- | --- | --- | --- | --- | --- | --- | --- | --- | --- | --- | --- | --- | --- | --- | --- |
| GNA12 (UniProt Q03113) | inactive: 0.173 | inactive: -0.157 | inactive: 0.029 | inactive: 0.046 | inactive: 0.282 | inactive: 0.052 | inactive: 0 | inactive: 0.183 | inactive: 0.072 | inactive: -0.066 | inactive: -0.118 | inactive: -0.042 | inactive: -0.031 | inactive: -0.107 | inactive: 0.101 | inactive: 0.192 | inactive: 0.147 | – | – | – |
| GIT2 (UniProt Q14161) | inactive: 0.111 | inactive: 0.32 | inactive: -0.166 | inactive: -0.057 | inactive: 0.027 | inactive: 0.426 | inactive: 0.044 | – | – | inactive: -0.187 | inactive: -0.038 | inactive: -0.108 | inactive: 0.053 | inactive: -0.166 | inactive: 0.035 | inactive: 0.244 | – | – | – | – |
| GMEB2 (UniProt Q9UKD1) | inactive: 0.003 | inactive: 0.039 | inactive: 0.168 | inactive: 0.004 | inactive: -0.009 | inactive: 0.047 | inactive: -0.117 | inactive: -0.105 | inactive: 0.024 | inactive: -0.021 | inactive: 0.061 | inactive: -0.022 | inactive: -0.158 | inactive: 0.006 | inactive: 0.145 | – | active: -0.367 | inactive: -0.022 | inactive: 0.018 | inactive: -0.128 |
| GPD1 (UniProt P21695) | inactive: 0.55 | inactive: -0.084 | inactive: -0.075 | inactive: -0.305 | inactive: 0.129 | inactive: -0.149 | inactive: -0.047 | inactive: -0.043 | inactive: 0.032 | – | inactive: 0.059 | inactive: -0.066 | inactive: 0.079 | inactive: 0.268 | – | – | inactive: 0.009 | inactive: -0.003 | inactive: -0.141 | inactive: -0.051 |
| GPAM (UniProt Q9HCL2) | inactive: 0.025 | inactive: -0.246 | inactive: -0.065 | inactive: -0.028 | inactive: 0.387 | – | inactive: 0.284 | inactive: 0.131 | inactive: 0.086 | inactive: 0.229 | – | inactive: -0.176 | inactive: 0.059 | inactive: -0.074 | inactive: -0.285 | inactive: -0.037 | inactive: -0.032 | inactive: 0.041 | inactive: 0.136 | inactive: 0.121 |
| GPX4 (UniProt P36969) | inactive: -0.021 | inactive: 0.035 | inactive: -0.012 | inactive: 0.057 | inactive: -0.007 | inactive: 0.006 | inactive: -0.063 | inactive: -0.036 | inactive: 0.058 | inactive: -0.026 | inactive: 0.065 | inactive: -0.005 | inactive: 0.003 | inactive: 0.099 | inactive: -0.078 | – | inactive: 0.02 | inactive: 0.142 | inactive: 0.01 | active: -0.462 |
| GNL1 (UniProt P36915) | inactive: 0.044 | inactive: 0.046 | inactive: 0.048 | inactive: -0.028 | inactive: 0.037 | inactive: -0.004 | inactive: 0 | inactive: 0.035 | inactive: -0.055 | inactive: 0.07 | inactive: 0.037 | inactive: 0.046 | inactive: -0.063 | inactive: -0.03 | inactive: -0.006 | – | inactive: -0.086 | inactive: 0.074 | inactive: 0.011 | inactive: -0.014 |
| GLUD2 (UniProt P49448) | inactive: 0.009 | inactive: -0.028 | inactive: 0.028 | inactive: 0.036 | inactive: 0.003 | inactive: -0.011 | inactive: 0.027 | inactive: -0.005 | inactive: -0.009 | inactive: 0.025 | inactive: 0.045 | inactive: 0.113 | inactive: 0.098 | inactive: -0.041 | inactive: -0.013 | – | inactive: 0.127 | inactive: 0.03 | inactive: 0 | inactive: 0.014 |
| GNAI3 (UniProt P08754) | inactive: -0.078 | inactive: -0.038 | inactive: -0.01 | inactive: 0.205 | inactive: 0.021 | inactive: 0 | inactive: -0.026 | inactive: -0.047 | inactive: 0.026 | inactive: -0.007 | inactive: 0.083 | inactive: 0.027 | inactive: 0.083 | inactive: 0.006 | inactive: 0.024 | – | inactive: 0.038 | inactive: 0.036 | inactive: 0.066 | inactive: -0.03 |
| GNMT (UniProt Q14749) | inactive: 0.009 | inactive: 0.151 | – | inactive: -0.095 | inactive: 0.114 | inactive: -0.176 | inactive: -0.179 | inactive: -0.15 | inactive: 0.05 | – | inactive: 0.107 | inactive: -0.069 | – | inactive: 0.032 | – | inactive: -0.167 | inactive: -0.127 | inactive: -0.07 | inactive: -0.044 | inactive: -0.055 |
| GREB1 (UniProt Q4ZG55) | inactive: 0.218 | active: -0.751 | inactive: 0 | inactive: -0.132 | inactive: 0.092 | – | inactive: -0.044 | inactive: -0.06 | inactive: 0.291 | inactive: 0.04 | – | inactive: 0.037 | inactive: -0.032 | inactive: 0.26 | inactive: -0.095 | – | inactive: 0.066 | – | – | – |

Reprinted from the results shown for reference:

| Target | log2 fold change (erlotinib) | log2 fold change [1] | log2 fold change [2] | log2 fold change [3] | log2 fold change [4] | log2 fold change [5] | log2 fold change [6] | log2 fold change [7] | log2 fold change [8] | log2 fold change (IRAK-1-4 Inhibitor I) | log2 fold change (ibrutinib) | log2 fold change [9] | log2 fold change [10] | log2 fold change [11] | log2 fold change (pinometostat) | log2 fold change [12] | log2 fold change [13] | log2 fold change [14] | log2 fold change (ralimetinib) | log2 fold change [15] |
| --- | --- | --- | --- | --- | --- | --- | --- | --- | --- | --- | --- | --- | --- | --- | --- | --- | --- | --- | --- | --- |
| GPD1 (UniProt P21695) | inactive: 0.55 | inactive: -0.084 | inactive: -0.075 | inactive: -0.305 | inactive: 0.129 | inactive: -0.149 | inactive: -0.047 | inactive: -0.043 | inactive: 0.032 | – | inactive: 0.059 | inactive: -0.066 | inactive: 0.079 | inactive: 0.268 | – | – | inactive: 0.009 | inactive: -0.003 | inactive: -0.141 | inactive: -0.051 |
| GPAM (UniProt Q9HCL2) | inactive: 0.025 | inactive: -0.246 | inactive: -0.065 | inactive: -0.028 | inactive: 0.387 | – | inactive: 0.284 | inactive: 0.131 | inactive: 0.086 | inactive: 0.229 | – | inactive: -0.176 | inactive: 0.059 | inactive: -0.074 | inactive: -0.285 | inactive: -0.037 | inactive: -0.032 | inactive: 0.041 | inactive: 0.136 | inactive: 0.121 |

From the supplement of paper PMC10849652
